The campaign covered roughly 53,000 sequences. About 3,700 (7%) were called active.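 How the source made its calls: active means gene knockdowns whose robust z-score for IL-1 alpha signal is at least 2 or at most -2, so actives lie on both sides; inactive means the rest.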 This is one part of the list.

This test is described as follows: Components of the Cytosolic LPS Sensing Pathway: Gene Identification via Genome-wide siRNA Screen.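 Further: robust z of the log signal after scaling to non-targeting control siRNA wells of the plate.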 To be noted: RAW264.7 macrophages, IL-1a HTRF, actives lie on both sides, screened at 100 nM (by protocol), cells primed 5 h with Pam3CSK4 first. The method, boiled down:
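IL-1a HTRF of supernatants after 24 hour LipidA transfection of Pam3CSK4-primed (5 hours) RAW264.7 cells, 48h post-siRNA transfection (100 nM). Scores: percent of plate negative-control median, then log-based robust z-score.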
On the technique in general: Time-resolved FRET reads energy transfer from a long-lived donor to a nearby acceptor.
For the sequence “GGAGACCAGGAAUAAUUGUTT against 5330438I03Rik”, the z-score was inactive: 0.216.
On to GCAGGAAUGUUCAGAAACATT against Txlng, for which the z-score was inactive: -1.66.
On to GGAACAAUAUAUCUUCAUCTT against Ptpru, for which the z-score was inactive: 0.583.
As for GGAUCUGGUGAAACUAGCUTT against Psmd4, the z-score is inactive: 0.0684.
The result for GCAGAAGAAACAGCUGUCUTT against Tmem140 reads inactive: -1.95.
In the case of GGUCACUUCCUGUCUUUAATT against Crlf2, the z-score is inactive: -0.771.
The result for GGAAACAAAUGAGUUGCUGTT against Stx12 reads inactive: -0.7; that for CUGCGAGGCUUUUUAAAUGTT against Prr7, inactive: -0.346; that for GGUAUUGGUCCAAUUUUUCTT against Gng7, inactive: 0.187.
As for CCCAGAGCUGUUAUUUAAATT against Ripk3, the z-score was inactive: 0.514.
With GGUUACAGCACUGAUUGUUTT against Chac2, the z-score is inactive: 0.77.
As for GGGUCAUGUAACUAGUAUATT against Tprkb, the z-score is inactive: 0.973.
As for GCACAGGUCUAAUUCGUCUTT against Grik1, the z-score is active: -2.78.
For GGUUGAGAAGUCUGUUAAUTT against Hsph1, the z-score is inactive: 1.05.
With GGAUGAGUGCAGCAAAAGUTT against Gm4861, the z-score is inactive: 0.396.
As to GGUGGUAGUUUAUGAUCAATT against Dusp16, the z-score was inactive: -0.00387.
Turning to GGCAACAAUGGUUGUCUUGTT against Ctsr, the z-score is inactive: 0.515.
On to GGUCAUUCCUGUGCACCAGTT against Psmb11, for which the z-score was inactive: 0.526.
CCUGUGAAAUACCAGCGUGTT against Rsl24d1: the z-score is active: 2.05.
GGACAUGACCAAAAGGCUGTT against Zfp706: the z-score is active: 3.84.
As for GCUAGUAUUGAGCAACAACTT against Rnh1, the z-score was inactive: 0.0349.
The result for GGUCCUUAACCGCUAUGCATT against Esrp2 reads inactive: 0.294; that for GCAACGUAACAUUACUAUCTT against Rxfp2, inactive: 0.158.
Regarding CCAAAUUCCUAUCAAGUUUTT against Ints2, the z-score was inactive: 1.98.
Consider GCUCAGUUUAUACCAAAAUTT against Api5, for which the z-score was active: -2.31.
With GGUAACUGAAACUCAAUUATT against Tceanc2, the z-score is inactive: 1.32.
With GGUGUGAACUCCUUCCUGGTT against Dpysl4, the z-score is inactive: 1.01.
Regarding GGCUAAGACUAUGUUGUAATT against Smcp, the z-score was inactive: -1.48.
The result for GGGAUGACUUGUUCACAUCTT against Trmt2a reads inactive: -0.0324; that for GGCUUGAUGGGCUUUUUGCTT against Ndufb8, inactive: 0.285; that for GGUCUUCCUUGAACAUCAGTT against Fev, active: -2.05.
The result for CCCUCUACUACUGCAUCGUTT against Xkr7 reads inactive: 1.74; that for CCUAUUUUCUAUGUUGCCUTT against Cnih2, inactive: 0.479; that for GGCGUAACCUAACAUGGGATT against Clec1b, inactive: -1.35.
The result for GGAGAAGAAGGAGAGGAUGTT against Myo18a reads inactive: -0.347; that for GGUCACCUGGGUAUUUAUGTT against Tead3, inactive: -1.06; that for CGAGAAGAUAUUUAAAGAGTT against Myo10, inactive: -0.045.
For CCCUGAUGAAUAAGGACUCTT against Kif17, the z-score is inactive: -0.516.
Turning to GGAUUUUGUUCUUCAUCCATT against Nedd4, the z-score is inactive: -0.142.
The result for GCCAUAAUAAUCAAUGUGATT against Galm reads inactive: -0.759; that for CAGCAUCUUUGAUUGUCUGTT against Tssc4, active: 2.15.
As to GGUAACAAGAGGUCUAGCATT against P2ry1, the z-score is active: 3.66.
GGAUGAAAUGAACCUAGAGTT against Sh3pxd2b: the z-score was active: -2.16.
With “GCUUUCAUGUCCUAAAGAATT against 4921504E06Rik”, the z-score was inactive: -0.242.
GGCACAGUAAUCUUUUUCUTT against Triqk: the z-score is inactive: -1.51.
For the sequence CCCAGACAUAUUUUACUCGTT against Ido2, the z-score is inactive: -1.14.
Regarding GGAAAUCAUUCUCCUUCAUTT against Sned1, the z-score was inactive: 0.492.
The result for GGAUGCAUCUUGGGUACUGTT against Vmn1r74 reads inactive: 0.446; that for GCUCUUUCUAGCUUAUGAUTT against Chmp1b, inactive: -0.464.
On to GGAACUGUUUGACAGUGAGTT against Pex19, for which the z-score is inactive: -0.811.
For AGUGUAACUGCAGAAGCCUTT against Olfr207, the z-score was inactive: -1.3.
Regarding GGAAGUUGUAGGAGAAAACTT against Rnf214, the z-score was inactive: -0.624.
In the case of GGCAGGAAGGACAAUCAGUTT against Thsd7b, the z-score is inactive: -0.349.
CGAAGUGACUGGAAAAAAATT against Wbp2: the z-score was inactive: -0.768.
Turning to GUGAAGAAAGUCAUCAAGATT against Olfr1506, the z-score is inactive: -0.182.
With GGGACAAAGGCUCAACAUATT against Pid1, the z-score was inactive: 1.79.
With GGGAGAGUCAAAAAAAGAUTT against Khdrbs1, the z-score was inactive: -0.536.
For CUUAGCUUACAAACAAGGCTT against Gm5617, the z-score is inactive: 0.485.
With GCUUUUGAUCGCAAUACAGTT against Spag9, the z-score was inactive: 0.724.
Take GGUGAAGGUCAGCAAAGAATT against Exosc5: the z-score is inactive: -1.17.
Regarding GCUUUGAGAACCUUGGUAATT against Rab9b, the z-score is inactive: -0.652.
The result for CCCAGCAUACCAUCUCUACTT against Arhgef1 reads inactive: 0.619; that for GGAUAUGGACUAUUCACGGTT against Dgat1, inactive: -1.32; that for GGAACUGAAUGCUCUUCCATT against Msln, inactive: -0.145.
Take AUGAUUCACAGUGCAGUGATT against Gimap1: the z-score was inactive: -0.575.
On to CCUACAGCGAGCUAUUUCATT against Epc2, for which the z-score is inactive: -1.07.
For GCCUCUUUUCACACUUAAATT against Olfr608, the z-score is inactive: -1.16.
Take CGAAUGUGGCUAUGACCUGTT against Kif6: the z-score is inactive: 0.555.
The result for GGAAUUAACGUGUUUCUGUTT against Tor1aip2 reads inactive: 1.14.
As to GGGCAUGUUCACCAUCAGATT against Sec1, the z-score is inactive: -1.42.
Turning to CCAUCUACGAUCAAGAGAATT against Cryba1, the z-score was inactive: -0.288.
On to GGAAUGUGCUCAUUUUUGATT against Hspa8, for which the z-score was inactive: -1.97.
For GGUUUUAAAGUCAUUGUUGTT against Piezo2, the z-score was inactive: 0.0777.
Take CGAGAAUAUCAUUUAUUGCTT against Alkbh7: the z-score was inactive: 1.52.
Turning to GCCACUUACACUUACUUGATT against Olfr1331, the z-score is inactive: -0.15.
For CCUGGUGCAUGCUUUAAUATT against Kynu, the z-score was inactive: -0.603.
Take GGAUGUGCCCAACUGGAAGTT against Ndufa13: the z-score is inactive: -0.676.
The result for UGAAUCACCACCCGGAAUGTT against Pcbd2 reads inactive: 0.41; that for GGUGGAGUGAUACGAAGAGTT against Radx, inactive: 1.21.
The result for GAGAAACACCAUCUCCUAUTT against Olfr502 reads inactive: -1.2.
Take CCUGAUCUGUGGCACGGAUTT against Spink4: the z-score is inactive: 0.672.
As for GGAUUUCUUCAAGUCCUUGTT against Scgb1a1, the z-score is inactive: 0.705.
On to GGCCAUAUUGGAGCAAAUCTT against Nppa, for which the z-score is inactive: 0.0999.
As for GGCAGAAAGUUAUUAUAGGTT against Plppr3, the z-score was inactive: -0.318.
For the sequence GGAGUUUUGGGUGAUGAUATT against Olfr974, the z-score is active: -2.41.
On to GGUCUUCGAAAGAACCAAGTT against Siva1, for which the z-score was inactive: -0.333.
Regarding GGAGAAGACCUGAUUCCAGTT against Zfx, the z-score was inactive: 0.195.
Take GCUUUUUGGAGGAAUUCACTT against Gm6034: the z-score was inactive: 0.208.
The result for CGAGUUAUUCUUGUUAUAGTT against Vmn1r178 reads inactive: 0.356.
With CCUUGUCCCUUUACCUCAATT against Plk5, the z-score is inactive: -1.39.
Turning to GCAAGACCCAAGAGUUACATT against Soat2, the z-score was active: -2.07.
As to GGAAAAAAAGGAGUGGGCATT against Klra6, the z-score is inactive: -0.811.
The result for GGGUUAUGCUGUCUUGGUGTT against Tmem50b reads inactive: -0.0931; that for GGACUUUGAAAAAGAUGCATT against Fkbp7, inactive: 1.21; that for GCCUUUAUACUAGCAGCCATT against Olfr827, inactive: -0.434.
With GGAUCGUGUGGAACACCUCTT against Mtss2, the z-score is inactive: 0.761.
The result for CCGUAUCGAUGUGACAUAUTT against Zfp94 reads inactive: -0.736; that for GGUCCAGAAGAAAUAAACATT against Kcnn1, inactive: -0.375; that for CCUGUGCUCUGAGUUUGGCTT against Tmem270, inactive: 0.00319.
For CCACUAAUCGAGUUGGUGCTT against Pigf, the z-score is inactive: -0.447.
For the sequence GAACGGGCAUAUGUUCAACTT against Mgst3, the z-score is inactive: 1.94.
As for GGAAAAGAAGAGGAAAUUCTT against Smarce1, the z-score is inactive: -1.26.
As for GGCAUUCCUACAGUUCAGATT against Mrpl46, the z-score is inactive: -0.144.
Turning to GGAGAAGGUAGUUCUGAAATT against Slc7a11, the z-score is inactive: -0.349.
Regarding GGCCCAAACUUACAGCUGUTT against Ptges2, the z-score is inactive: -0.255.
Consider CCUACUUGACGAAGGCCUATT against Ndufb10, for which the z-score is inactive: 0.903.
The result for GGAGCUUACAUGGUCCCUATT against Prss37 reads inactive: -0.238.
